# In PubChem BioAssay AID1671190 (National Center for Advancing Translational Sciences (NCATS), 2021):
# Chains of the proteins cited; added tags and fusions are not shown. Lines headed by an entry give the natural chain unless they say otherwise; changes in a name come on top.
# UniProt P18054: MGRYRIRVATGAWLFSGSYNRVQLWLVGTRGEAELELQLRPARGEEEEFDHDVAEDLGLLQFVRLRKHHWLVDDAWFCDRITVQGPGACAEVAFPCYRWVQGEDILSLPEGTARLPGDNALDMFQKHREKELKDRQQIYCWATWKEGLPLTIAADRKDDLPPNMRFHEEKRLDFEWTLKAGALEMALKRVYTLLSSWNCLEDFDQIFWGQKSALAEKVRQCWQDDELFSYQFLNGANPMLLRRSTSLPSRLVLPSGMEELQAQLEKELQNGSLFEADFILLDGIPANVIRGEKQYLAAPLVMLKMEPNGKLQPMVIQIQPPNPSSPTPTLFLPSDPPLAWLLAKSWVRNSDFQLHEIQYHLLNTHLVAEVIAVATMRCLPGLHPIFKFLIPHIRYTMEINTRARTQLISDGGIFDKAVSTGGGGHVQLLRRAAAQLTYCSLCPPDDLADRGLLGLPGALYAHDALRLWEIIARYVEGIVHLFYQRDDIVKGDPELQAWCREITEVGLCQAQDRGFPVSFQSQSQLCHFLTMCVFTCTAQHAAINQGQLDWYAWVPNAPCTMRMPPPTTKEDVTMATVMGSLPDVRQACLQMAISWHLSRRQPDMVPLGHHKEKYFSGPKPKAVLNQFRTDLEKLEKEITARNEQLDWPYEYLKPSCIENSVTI
# The campaign covered roughly 580,000 compounds. About 6,100 (1.1%) were called active. The inconclusive results got no clear call from the source; some entries with a clear call stand among them for comparison. The call rests on the fitted dose curve; in most records, active means well fitted inhibition curve with a large enough effect; inconclusive means small, poorly fitted or top-dose-only effect, or another doubt; inactive means no such curve, though single readings can be large or run the other way. A potency beside an inconclusive call is a rough fit, not a confirmed value.
# Molecular target: Polyunsaturated fatty acid lipoxygenase ALOX12 (Homo sapiens) (UniProt P18054)
# Experiment: Primary qHTS assay for inhibitors of human arachidonate 12S-lipoxygenase (ALOX12): Round 2
# Conditions: purified 12hLO, xylenol orange hydroperoxide absorbance; activity change, negative = inhibition: at 108 µM (top of the series) unless noted
# How it was run: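 Purified human 12hLO (150 nM final) in 25 mM Hepes, 0.01% Triton X-100, pH 7.0 was preincubated 15 min at room temperature with compound. Then 40 uM arachidonic acid was added, 30 min. Hydroperoxide was read by Fe-XO absorbance ratio 573/405 nm.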
# On the % scale 0 is the no-effect control and ±100 the full control effect; potency means the concentration at half of the fitted maximal effect.
SMILES,Potency,"activity change, negative = inhibition"
COC(=O)COc1cccc2c(=O)n(CC(=O)NCc3ccc(F)cc3)ccc12,inactive,–
COc1ccc(C(=O)Nc2ccc(NC(=O)c3ccccn3)cn2)cc1,"inconclusive: 22.4 µM [inhibitor, full curve, poor fit]",–
CC(=O)c1cccc(NC(=S)NC(=O)c2ccc(C)cc2Cl)c1,"inconclusive: 39.8 µM [inhibitor, partial curve, poor fit]",–
COc1ccc(NC(=O)O[C@@H]2CO[C@H]3[C@@H]2OC[C@@H]3NC(=O)COc2ccccc2)cc1,"inconclusive: 28.2 µM [inhibitor, full curve]",–
C=CCC1Cc2c(N)cccc2C(CC=C)N1 (stereo not given),"inconclusive: 100 µM [inhibitor, single point]",–
CCc1ccc(C(=O)COC(=O)/C=C/C(=O)OCC(=O)c2ccc(CC)cc2)cc1,"inconclusive: 63.1 µM [inhibitor, partial curve, poor fit]",–
COc1ccc([C@H]2N[C@]3(CCCN(CC4CCCCC4)C3=O)[C@H]3C(=O)N(Cc4ccccc4)C(=O)[C@@H]23)cc1,"inconclusive: 79.4 µM [inhibitor, partial curve, poor fit]",–
O=C(c1n[nH]c2ccccc12)N1CCC2(CC1)CC(N1CCCCC1)CCO2 (stereo not given),inactive,–
CCOc1ccc(NC(=O)C2CC(=O)N(c3n[nH]c4cccc(F)c34)C2)cc1 (stereo not given),inactive,–
Cc1cccc(N2CCN(C(=O)C(Cc3ccccc3)NC(N)=O)CC2)c1C (stereo not given),"inconclusive: 7.08 µM [inhibitor, single point]",–
CCOC(=O)c1ccc(NC(=O)c2ccccc2[N+](=O)[O-])cc1,inactive,–
N=c1oc2ccc3ccccc3c2cc1C(N)=S,inactive,–
CC(=O)Nc1ccc(OC(=O)C(CCS(C)(=O)=O)N2C(=O)c3ccccc3C2=O)cc1 (stereo not given),inactive,–
COc1ccc(Cl)cc1C(=O)N1CCC2(CC1)N(c1ccccc1)C(=O)CS2(=O)=O,inactive,–
COc1ccc(/C=C/C(=O)Nc2sc(C)c(C)c2C(=O)O)cc1,"inconclusive: 44.7 µM [inhibitor, partial curve, poor fit]",–
CCOc1cc(CN2CCN(S(=O)(=O)c3ccc(C)cc3)CC2)ccc1OC,"inconclusive: 1.41 µM [inhibitor, full curve, poor fit]",–
O=C1COCC2(CN(CCCc3ccccc3)C2)CN1Cc1ccccc1,"inconclusive: 28.2 µM [inhibitor, full curve]",–
C/C(=N/Nc1ccc(S(N)(=O)=O)cc1[N+](=O)[O-])c1cccc(Br)c1,inactive,–
CN(C)CCC(=O)c1cccc(Br)c1,"inconclusive: 50.1 µM [inhibitor, partial curve, poor fit]",–
O=[N+]([O-])c1c(NCCO)cc(N2CCC3(CC2)OCCO3)c2nonc12,"inconclusive: 39.8 µM [inhibitor, partial curve, poor fit]",–
CCOCC(=O)OCC(=O)NC12CC3CC(CC(C3)C1)C2,inactive,–
NS(=O)(=O)c1ccc(-c2ccc(/C=N/NC(=O)c3ccccc3O)o2)cc1,inactive,–
CC(=O)Nc1ccc(SCC(=O)c2cc(C)n(Cc3cccs3)c2C)cc1,inactive,–
O=C(/C=C/c1cccc(O)c1)c1cccc(Br)c1,"inconclusive: 39.8 µM [inhibitor, partial curve]",–

SMILES,Potency,"activity change, negative = inhibition"
CCCn1c(SCc2ncc(-c3ccc(Cl)cc3)o2)n[nH]c1=O,"inconclusive: 50.1 µM [inhibitor, partial curve, poor fit]",–
CC(Oc1ccc2c(-c3ccccc3)cc(=O)oc2c1)C(=O)NC(Cc1c[nH]c2ccc(O)cc12)C(=O)O (stereo not given),"inconclusive: 79.4 µM [inhibitor, partial curve, poor fit]",–
COCCCn1c(Cc2csc(Nc3cccc(Cl)c3)n2)nnc1SCC(=O)OC,"inconclusive: 22.4 µM [inhibitor, partial curve, poor fit]",–
CC(C)CC(=O)N1CCN(Cc2ccc3c(c2)OCO3)CC1,"inconclusive: 0.794 µM [inhibitor, full curve, poor fit]",–
Cc1cnc(-c2ccccc2)n1CCNS(=O)(=O)c1ccccc1,inactive,–
Cc1ccc2nc(NC(=O)/C=C/c3ccc4c(c3)OCO4)sc2c1,"inconclusive: 141 µM [inhibitor, single point]",–
O=S(=O)(c1ccc2nc(-c3ccco3)c(-c3ccco3)nc2c1)N1CCOCC1,active: 14.1 µM,–
CN(C)c1cccc(Nc2cc3c(cn2)cc(-c2cnn(C)c2)n3Cc2ccccc2)c1,"inconclusive: 25.1 µM [inhibitor, partial curve, poor fit]",–
O=[N+]([O-])c1ccc(OCc2n[nH]c(=S)n2-c2ccccc2)cc1,"inconclusive: 141 µM [inhibitor, single point]",–
CC1=C(C(=O)OCCOc2ccccc2)C(c2ccsc2)NC(=O)N1C (stereo not given),inactive,–
CCCOc1ccccc1C1CC(=O)NC(C)=C1C(=O)OCC(C)C (stereo not given),"inconclusive: 50.1 µM [inhibitor, partial curve, poor fit]",–
CCn1c(=O)sc2cc(NS(=O)(=O)c3ccc(C)cc3)ccc21,"inconclusive: 79.4 µM [inhibitor, partial curve, poor fit]",–
CC(C)(C)OC(=O)N1CCC(c2c(C(=O)O)cnn2-c2ccc(Cl)cc2)CC1,"inconclusive: 44.7 µM [inhibitor, partial curve, poor fit]",–
Cc1ccc(S(=O)(=O)N(C)CC(=O)NCCCn2ccnc2)cc1,–,inconclusive: -34.1% [inhibitor]
CCOC(=O)c1ccc(NC(=O)Cn2nc3c(cc2=O)CC(C)CC3)cc1 (stereo not given),inactive,–
C=CCn1c(SCC(=O)Nc2cccc(S(N)(=O)=O)c2)nc2sc(C)c(C)c2c1=O,inactive,–
CC(C)(C)c1cnnn1-c1ccc(/C=N/Nc2ccc([N+](=O)[O-])cc2)cc1,"inconclusive: 44.7 µM [inhibitor, partial curve, poor fit]",–
CCOC(=O)c1cc(NC(=O)/C=C/C(=O)O)cc(C(=O)OCC)c1,inactive,–
Cc1nnc(SCC(=O)N2CCCC(C(=O)c3ccc(Cl)cc3)C2)o1 (stereo not given),inactive,–
O=C(OCc1c(-c2ccccc2)ncc2ccccc12)c1cccc(Br)c1,inactive,–
CC1(C(=O)NS(=O)(=O)c2cccc(OC(F)F)c2)CCN1C(=O)Cc1cccs1 (stereo not given),"inconclusive: 20 µM [inhibitor, partial curve]",–
Cc1cccc(C(=O)Nc2cccc(C(=O)N/N=C/c3ccccn3)c2)c1,inactive,–
CC(C)Cc1nc2oc3c(NCC(C)O)ncnc3c2c2c1CCC2 (stereo not given),inactive,–
Cc1nc(SCC(=O)Nc2cccc3ccccc23)oc1C,"inconclusive: 39.8 µM [inhibitor, partial curve, poor fit]",–

# Single records, from the list above:
# O=S(=O)(c1ccc2nc(-c3ccco3)c(-c3ccco3)nc2c1)N1CCOCC1 in the list: Potency: active: 14.1 µM
# CC1(C(=O)NS(=O)(=O)c2cccc(OC(F)F)c2)CCN1C(=O)Cc1cccs1 (stereo not given) in the list: Potency: inconclusive: 20 µM [inhibitor, partial curve]
# Cc1cccc(C(=O)Nc2cccc(C(=O)N/N=C/c3ccccn3)c2)c1 in the list: Potency: inactive
# Cc1ccc2nc(NC(=O)/C=C/c3ccc4c(c3)OCO4)sc2c1 in the list: Potency: inconclusive: 141 µM [inhibitor, single point]

# (cont.)

SMILES,Potency,"activity change, negative = inhibition"
COc1ccc(-c2noc(COC(=O)c3nn(C)c4ccccc34)n2)cc1,inactive,–
Cn1cc(CN2CCC(Oc3ccc(C(=O)N4CCCCC4)cc3)CC2)cn1,inactive,–
Cc1noc2ccc(-c3cccnc3)nc12,"inconclusive: 282 µM [inhibitor, partial curve, poor fit]",–
COc1ccc(OC)c(NC(=O)c2ccc(OCC(=O)N3CCOCC3)c(OC)c2)c1,inactive,–
COCC1CN(Cc2ccc(Br)cc2)CC12CCNCC2 (stereo not given),"inconclusive: 35.5 µM [inhibitor, partial curve, poor fit]",–
Cc1nc2cc(NS(=O)(=O)c3ccccc3Cl)ccc2o1,inactive,–
CCC(C(=O)Nc1ccc2c(c1)OCO2)n1nc(-c2cc(C)ccc2C)ccc1=O (stereo not given),inactive,–
C=CCNc1nc2c(c(=O)n(C)c(=O)n2C)n1CCC(C)C,inactive,–
Cc1ccc(O)c(C2=Nc3ccccc3N=C(c3cccs3)C2)c1,inactive,–
COc1ccc(CN2CCCC(c3nc(-c4ccncc4)ncc3-c3ccccc3C)C2)c(OC)c1 (stereo not given),"inconclusive: 100 µM [inhibitor, single point]",–
COc1ccccc1C1=NOC(C)(c2sc(-c3ccccc3)nc2C)C1 (stereo not given),"inconclusive: 50.1 µM [inhibitor, partial curve]",–
COc1cc(/C=c2\sc3n(c2=O)CCCN=3)ccc1O,"inconclusive: 28.2 µM [inhibitor, partial curve, poor fit]",–
Cc1cc(C)nc(Nc2ncc(O)n2-c2ccc(C)c(C)c2)n1,inactive,–
CC1Oc2ccccc2C=C1/C=C1/SC(N2CCOCC2)=NC1=O (stereo not given),"inconclusive: 10 µM [inhibitor, full curve, poor fit]",–
COc1ccc(C(=O)Nc2oc3ccccc3c(=O)c2-c2cccc(OC)c2)cc1,"inconclusive: 89.1 µM [inhibitor, partial curve, poor fit]",–
Cc1cc(C)cc(NS(=O)(=O)c2ccc(N3CCCCS3(=O)=O)cc2)c1,"inconclusive: 112 µM [inhibitor, partial curve, poor fit]",–
O=C(Cn1nc(-c2ccc(F)cc2)ccc1=O)NC1CCCc2c1[nH]c1ccccc21 (stereo not given),active: 35.5 µM,–
COC1CCCCC1Nc1cc(C)ccc1C (stereo not given),"inconclusive: 0.891 µM [inhibitor, full curve, poor fit]",–
c1ccc(-c2cnc(CSc3ncnc4sccc34)o2)cc1,"inconclusive: 0.501 µM [inhibitor, full curve, poor fit]",–
O=C(/C(Cl)=C\Nc1ccc(SC(F)F)cc1)C(F)(F)F,"inconclusive: 39.8 µM [inhibitor, partial curve, poor fit]",–
CC(C)CCNC(=O)C1CC(c2ccccc2[N+](=O)[O-])=NO1 (stereo not given),"inconclusive: 10 µM [inhibitor, partial curve, poor fit]",–
COc1ccc(CN2CCCCC23Cc2ccccc2CNC3=O)cc1OC (stereo not given),"inconclusive: 39.8 µM [inhibitor, partial curve, poor fit]",–
